Data from article PMC12526889.
Like-named read-outs stand apart in the source and are kept apart here. These are yes or no findings as the source states them, for the method shown. Binding seen in cells or lysates may run through a third protein. Where a sequence is shown, tags or fusion partners need not be part of it.

Chains of the proteins cited; added tags and fusions are not shown.
UniProt P05804: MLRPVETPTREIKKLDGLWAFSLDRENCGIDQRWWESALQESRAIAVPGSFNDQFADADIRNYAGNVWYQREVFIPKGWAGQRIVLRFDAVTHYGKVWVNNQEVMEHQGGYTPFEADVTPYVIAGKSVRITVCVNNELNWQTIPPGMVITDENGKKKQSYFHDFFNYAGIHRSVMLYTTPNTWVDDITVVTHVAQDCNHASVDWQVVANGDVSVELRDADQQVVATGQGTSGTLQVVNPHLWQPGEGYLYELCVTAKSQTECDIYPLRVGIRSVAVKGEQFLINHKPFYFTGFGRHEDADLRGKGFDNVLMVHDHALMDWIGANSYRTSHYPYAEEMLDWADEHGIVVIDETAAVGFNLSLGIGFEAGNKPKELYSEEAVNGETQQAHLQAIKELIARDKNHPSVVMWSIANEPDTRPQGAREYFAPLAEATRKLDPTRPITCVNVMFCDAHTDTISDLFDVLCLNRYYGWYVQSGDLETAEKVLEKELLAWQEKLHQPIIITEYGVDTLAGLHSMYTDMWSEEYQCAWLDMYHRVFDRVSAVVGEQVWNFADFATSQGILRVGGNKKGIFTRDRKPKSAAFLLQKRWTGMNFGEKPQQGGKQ

T1: Yn:CENP-C (BiFC fusion) (Arabidopsis thaliana) (UniProt Q66LG9)
T1 sequence: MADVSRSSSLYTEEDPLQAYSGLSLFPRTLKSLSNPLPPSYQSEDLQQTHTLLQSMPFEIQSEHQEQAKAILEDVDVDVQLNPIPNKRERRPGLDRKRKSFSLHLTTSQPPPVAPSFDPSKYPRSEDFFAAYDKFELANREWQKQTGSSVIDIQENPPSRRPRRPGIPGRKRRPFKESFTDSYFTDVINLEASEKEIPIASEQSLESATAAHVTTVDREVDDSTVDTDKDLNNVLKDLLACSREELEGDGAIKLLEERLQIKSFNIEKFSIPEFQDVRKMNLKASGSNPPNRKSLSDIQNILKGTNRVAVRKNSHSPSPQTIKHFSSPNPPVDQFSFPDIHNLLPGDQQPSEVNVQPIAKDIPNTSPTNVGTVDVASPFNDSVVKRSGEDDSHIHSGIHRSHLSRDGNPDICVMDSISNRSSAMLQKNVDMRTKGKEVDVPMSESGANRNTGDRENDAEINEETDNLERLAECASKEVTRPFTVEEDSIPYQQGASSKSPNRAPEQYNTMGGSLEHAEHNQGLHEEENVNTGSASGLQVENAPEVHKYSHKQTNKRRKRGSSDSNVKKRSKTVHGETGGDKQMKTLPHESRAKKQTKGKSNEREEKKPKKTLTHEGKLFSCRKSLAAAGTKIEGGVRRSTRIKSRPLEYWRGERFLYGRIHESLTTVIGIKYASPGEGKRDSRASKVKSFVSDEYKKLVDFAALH

B1: MIS12 fused to Yc (BiFC fusion) (protein, UniProt Q2V0Z5 1-238)
chain: MEGSKSEAVFDSMNLNPQIFINEAINSVEDYVDQAFDFYARDASKSLKIKGSDKQKSQALSNGIARVRGLLLSVIDNRLKLWESYSLRFCFAVPDGFVLPKSEESSSVHQDGLYDLELDAELDSLRDKLNVVGKRSVELDSELQALERSSVSRERSLRLVNEALELYDESSMDEIFKEMTKMASELRASVERLKTRRMKASESAKVKRLKNHGKEFSAMTFDGKLEDLEKFQAELRKM

How the values were obtained:
[1] = molecular target: T1, Yn:CENP-C (BiFC fusion) (Arabidopsis thaliana); experiment: split reporter; BiFC: fusions to the N-terminal and C-terminal fragments of YFP coinfiltrated with p19 into N. benthamiana leaves; confocal imaging 3 days after inoculation
[2] = molecular target: T1, Yn:CENP-C (BiFC fusion) (Arabidopsis thaliana); experiment: as above; remark: listed apart in the source

Molecule | binding [1] | binding [2]
GUS protein (BiFC negative control) (from UniProt P05804 1-603) (enzyme) | no binding | –
B1 | – | no binding
